Measurements published in the supplement of paper PMC11237882.
The other results are listed elsewhere or left out. Values are worked out from sequencing counts and are noisy.

Target: T1, Homer1 EVH1 domain
T1 chain: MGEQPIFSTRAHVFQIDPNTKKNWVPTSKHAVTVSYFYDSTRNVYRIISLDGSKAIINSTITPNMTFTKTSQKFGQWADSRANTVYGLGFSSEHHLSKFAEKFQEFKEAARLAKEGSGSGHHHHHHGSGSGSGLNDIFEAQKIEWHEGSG
Assay: enrichment score (AUC of log2 frequency ratio across FACS sorting rounds) (log2 AUC); higher = stronger enrichment for Homer1 EVH1 binding

Which enrichment score does the source give for FTIFLILFLAFIETPSSLTSTADVRYPAAPWEPPCG here?
Its enrichment score is 2.44.

With VPLPLLQGWVMFVSVTAFFFSLLFLGMFLSGMVAQI as the binder, how does the enrichment score read?
Its enrichment score is 2.71.

How did the enrichment score turn out when RPFRASSSTFFFQLVLLLGLLLAAVPLGYVVSSIHS was run?
Its enrichment score is -4.18.

With ISNIGHIRPQRTILAFVSGIFFILSGLSLVVGLVLY as the binder, how does the enrichment score read?
Its enrichment score is 0.0829.

Which enrichment score does the source give for RDRSISYSGCMIQLFFFCVCVISECYMLAAMACDRY here?
Its enrichment score is -4.54.

How did the enrichment score turn out when HWENPVVSSQFYGALLGTVCMLYLLPLCWVLTLLNS was run?
Its enrichment score is 4.43.

With MTPPKLRASLSPSLLLLLSGCLLAAARREKGAASNV as the binder, how does the enrichment score read?
Its enrichment score is 3.98.

SDVRHAVATIFGIYFVIFCFGWYSVHLFVLVLMCYA was tested. Which enrichment score did it give?
The enrichment score was -0.109.

Which enrichment score does the source give for KTNGTGRVRLPPAGFATEGWFIGFVSAIILLLLVLL here?
Its enrichment score is -1.45.

With YMHAGSLLLKMGQHGNNVQWRALSELAALCYLIAFQ as the binder, how does the enrichment score read?
Its enrichment score is 3.53.

Which enrichment score does the source give for MATAERRALGIGFQWLSLATLVLICAGQGGRREDGG here?
The enrichment score was 3.16.

Which enrichment score does the source give for PWAPHALPFWDTPLNHGLNVFVGAALCITMLGLGCT here?
Its enrichment score is 1.74.
